Test results reported in PubChem BioAssay AID220 (DTP/NCI, 2004).
The list shows only some results of the screen, not a fair sample: it is rich in T/C values a quarter to a half above the control, in often repeated tests (any T/C) and in doses without a T/C. Further doses and runs are listed elsewhere. T/C is the treated group as % of the vehicle group. Schedule codes are those of the source, taken here to give the interval after Q, in days (D) or hours (H), and the number of doses after X. Some T/C values carry the count of animals alive at the toxicity check (mostly the fifth day); without a count, all were alive then. Some entries give survivors of the animals treated and no T/C: the source files T/C as zero there, which appears to mark a toxic dose or a test without result, not a measured value. Survivors were counted at the toxicity check, usually on the fifth day, unless a day is given; later deaths do not show. Some doses were run more than once; the values are given in rising order.

Tested on: CD8F1 mice, subcutaneous mammary adenocarcinoma, T/C%
Assay: NCI In Vivo Anticancer Drug Screen. Data for tumor model Mammary Adenocarcinoma CD8F1 (subcutaneous) in CD8F1
Conditions: higher T/C = larger tumour
In short: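 Transplantable tumors were established in mice, animals were dosed with compound or vehicle, and survival or tumor size was then measured in both groups. The treated result was divided by the control result.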

[1] = T/C endpoint: median tumor weight change, dose: 250.0 mg/kg/injection, schedule: Q01DX001 (ip), vehicle: saline with Tween-80
[2] = T/C endpoint: median tumor weight change, dose: 500.0 mg/kg/injection, schedule: Q01DX001 (ip), vehicle: saline with Tween-80
[3] = T/C endpoint: median tumor weight change, dose: 125.0 mg/kg/injection, schedule: Q01DX001 (ip), vehicle: saline with Tween-80
[4] = T/C endpoint: median tumor weight change, dose: 250.0 mg/kg/injection, schedule: Q01DX001 (ip), vehicle: saline
[5] = T/C endpoint: median tumor weight change, dose: 50.0 mg/kg/injection, schedule: Q01DX001 (ip), vehicle: saline with Tween-80

## Nc1nc(=S)c2[nH]cnc2[nH]1
T/C endpoint: median tumor weight (est.), dose: 32.0 mg/kg/injection, schedule: Q07DX005 (ip), vehicle: Klucel (hydroxypropylcellulose) (HPC)
  survivor count: 1 of 10

## CCC(C)C(=O)OC1C(=O)OC2CC3C(C)=CC(=O)C(O)C3(C)C3C4(O)OCC23C1C(C)C4O (stereo unspecified)
T/C endpoint: median tumor weight (est.), dose: 2.0 mg/kg/injection, schedule: Q07DX005 (ip), vehicle: saline with Tween-80
  survivor count: 6 of 10 on day 30
T/C endpoint: median tumor weight (est.), dose: 8.0 mg/kg/injection, schedule: Q07DX005 (ip), vehicle: saline with Tween-80
  survivor count: 1 of 10 on day 30
T/C endpoint: median tumor weight (est.), dose: 8.0 mg/kg/injection, schedule: Q07DX005 (ip), vehicle: saline
  survivor count: 4 of 10 on day 30
T/C endpoint: median tumor weight (est.), dose: 16.0 mg/kg/injection, schedule: Q07DX005 (ip), vehicle: saline with Tween-80
  survivor count: 0 of 10 on day 30

## CN=C(N)N/N=C(\C)c1ccc2oc3ccc(/C(C)=N/NC(N)=NC)cc3c2c1
[1]
  survivor count: 0 of 10 on day 38
[2]
  survivor count: 0 of 10 on day 38
T/C endpoint: median tumor weight change, dose: 1000.0 mg/kg/injection, schedule: Q01DX001 (ip), vehicle: saline with Tween-80
  survivor count: 0 of 10 on day 38

## N#C[C@H](OC1OC(COC2OC(CO)C(O)C(O)C2O)C(O)C(O)C1O)c1ccccc1 (stereo partly specified)
T/C endpoint: median tumor weight (est.), dose: 800.0 mg/kg/injection, schedule: Q07DX005 (ip), vehicle: suspension in saline, evaluated on day 30
  T/C: 136 % of control

## NC(=S)Nc1cccc2ccccc12
[3]
  survivor count: 3 of 10 on day 36
[1]
  survivor count: 0 of 10 on day 36
[2]
  survivor count: 0 of 10 on day 36

## O=CC(S)CO (stereo unspecified)
T/C endpoint: median tumor weight (est.), dose: 12.5 mg/kg/injection, schedule: Q07DX005 (ip), vehicle: suspension in saline, evaluated on day 30
  T/C: 147 % of control [9 of 10 alive]

## CCCCn1cnc2c(=S)nc[nH]c21
T/C endpoint: median tumor weight change, dose: 2000.0 mg/kg/injection, schedule: Q01DX001 (ip), vehicle: saline with Tween-80
  survivor count: 6 of 10 on day 33

## c1ccc(SSc2ccccn2)nc1
T/C endpoint: mean tumor weight, dose: 50.0 mg/kg/injection, schedule: Q07DX006 (ip), vehicle: saline, evaluated on day 37
  T/C: 126 % of control

## COC(=O)Nc1nc2ccc(C3(c4ccc(F)cc4)OCCO3)cc2[nH]1
[4]
  survivor count: 4 of 10 on day 29
T/C endpoint: median tumor weight change, dose: 500.0 mg/kg/injection, schedule: Q01DX001 (ip), vehicle: saline
  survivor count: 2 of 10 on day 29
T/C endpoint: median tumor weight change, dose: 1000.0 mg/kg/injection, schedule: Q01DX001 (ip), vehicle: saline
  survivor count: 0 of 10 on day 29
T/C endpoint: median tumor weight change, dose: 2000.0 mg/kg/injection, schedule: Q01DX001 (ip), vehicle: saline
  survivor count: 0 of 10 on day 29
T/C endpoint: median tumor weight change, dose: 2000.0 mg/kg/injection, schedule: Q01DX001 (ip), vehicle: suspension in saline
  survivor count: 0 of 10 on day 34

## Cc1cc2cc3cc(C)c(N)cc3nc2cc1N
[2]
  survivor count: 1 of 10 on day 31

## Cc1ccc2c(c1)C(=O)N(CC[P+](c1ccccc1)(c1ccccc1)c1ccccc1)C2=O
T/C endpoint: mean tumor weight, dose: 3.12 mg/kg/injection, schedule: Q07DX006 (ip), vehicle: water, evaluated on day 42
  T/C: 139 % of control
T/C endpoint: mean tumor weight, dose: 12.5 mg/kg/injection, schedule: Q07DX006 (ip), vehicle: water
  survivor count: 3 of 10
T/C endpoint: median tumor weight (est.), dose: 1.56 mg/kg/injection, schedule: Q07DX005 (ip), vehicle: water, evaluated on day 33
  T/C: 127 % of control
T/C endpoint: median tumor weight (est.), dose: 12.5 mg/kg/injection, schedule: Q07DX005 (ip), vehicle: water
  survivor count: 5 of 10

## O=c1cnn(C2OC(CO)C(O)C2O)c(=O)[nH]1 (stereo unspecified)
T/C endpoint: mean tumor weight, dose: 500.0 mg/kg/injection, schedule: Q07DX004 (ip), vehicle: saline, evaluated on day 27
  T/C: 142 % of control
T/C endpoint: median tumor weight (est.), dose: 1600.0 mg/kg/injection, schedule: Q07DX005 (ip), vehicle: saline, evaluated on day 30
  T/C: 126 % of control

## CN(C)CCCNc1c2ccccc2nc2cccc([N+](=O)[O-])c12
T/C endpoint: median tumor weight (est.), dose: 0.12 mg/kg/injection, schedule: Q07DX004 (ip), vehicle: saline
  survivor count: 6 of 10
T/C endpoint: median tumor weight (est.), dose: 31.0 micrograms/kg/injection, schedule: Q07DX005 (ip), vehicle: saline, evaluated on day 30
  T/C: 128 % of control
T/C endpoint: median tumor weight (est.), dose: 62.0 micrograms/kg/injection, schedule: Q07DX005 (ip), vehicle: saline, evaluated on day 30
  T/C: 134 % of control
T/C endpoint: median tumor weight (est.), dose: 125.0 micrograms/kg/injection, schedule: Q07DX005 (ip), vehicle: saline, evaluated on day 30
  T/C: 140 % of control
T/C endpoint: median tumor weight (est.), dose: 250.0 micrograms/kg/injection, schedule: Q07DX005 (ip), vehicle: saline
  survivor count: 0 of 10 on day 30
T/C endpoint: median tumor weight (est.), dose: 500.0 micrograms/kg/injection, schedule: Q07DX005 (ip), vehicle: saline
  survivor count: 0 of 10 on day 30

## CCOC(=O)Nc1cc2c(c(N)n1)N=C(CN(C)c1ccccc1)CN2
T/C endpoint: median tumor weight (est.), dose: 50.0 mg/kg/injection, schedule: Q07DX005 (ip), vehicle: Klucel (hydroxypropylcellulose) (HPC)
  survivor count: 1 of 10 on day 30
T/C endpoint: median tumor weight (est.), dose: 100.0 mg/kg/injection, schedule: Q07DX005 (ip), vehicle: Klucel (hydroxypropylcellulose) (HPC)
  survivor count: 0 of 10 on day 30 and 1 of 10 on day 30
T/C endpoint: median tumor weight (est.), dose: 200.0 mg/kg/injection, schedule: Q07DX005 (ip), vehicle: Klucel (hydroxypropylcellulose) (HPC)
  survivor count: 0 of 10 on day 30
T/C endpoint: median tumor weight (est.), dose: 400.0 mg/kg/injection, schedule: Q07DX005 (ip), vehicle: Klucel (hydroxypropylcellulose) (HPC)
  survivor count: 0 of 10 on day 30

## COc1cc(NCCCCCCCNC(C)C)c2nccc(C)c2c1
T/C endpoint: median tumor weight change, dose: 15.62 mg/kg/injection, schedule: Q01DX001 (ip), vehicle: saline, evaluated on day 31
  T/C: 130 % of control
T/C endpoint: median tumor weight change, dose: 125.0 mg/kg/injection, schedule: Q01DX001 (ip), vehicle: saline
  survivor count: 1 of 10 on day 31
[4]
  survivor count: 0 of 10 on day 31

## ClC1=C(Cl)C(Cl)=C(Cl)C1=Cc1ccccc1
[3]
  survivor count: 1 of 10 on day 24
[1]
  survivor count: 0 of 10 on day 24
[2]
  survivor count: 0 of 10 on day 24
T/C endpoint: median tumor weight change, dose: 600.0 mg/kg/injection, schedule: Q01DX001 (ip), vehicle: saline with Tween-80
  survivor count: 1 of 10 on day 39
T/C endpoint: median tumor weight change, dose: 1200.0 mg/kg/injection, schedule: Q01DX001 (ip), vehicle: saline with Tween-80
  survivor count: 0 of 10 on day 39

## CC1C(=O)c2cc3c(cc2CCN(C)Cc2c1ccc1c2OCO1)OCO3 (stereo unspecified)
[5]
  survivor count: 1 of 10 on day 28
T/C endpoint: median tumor weight change, dose: 100.0 mg/kg/injection, schedule: Q01DX001 (ip), vehicle: saline with Tween-80
  survivor count: 1 of 10 on day 28

## O=C1N[C@@H]2C(=C[C@H](O)[C@@H](O)[C@H]2O)c2cc3c(c(O)c21)OCO3
T/C endpoint: median tumor weight change, dose: 25.0 mg/kg/injection, schedule: Q01DX001 (ip), vehicle: saline with Tween-80
  survivor count: 4 of 10 on day 28
[5]
  survivor count: 0 of 10 on day 28

## C=CC12COC(=O)C(=C)C1C1OC(=O)C(=C)C1C(O)C2 (stereo unspecified)
T/C endpoint: mean tumor weight, dose: 2.5 mg/kg/injection, schedule: Q07DX006 (ip), vehicle: saline, evaluated on day 42
  T/C: 130 % of control
T/C endpoint: mean tumor weight, dose: 10.0 mg/kg/injection, schedule: Q07DX006 (ip), vehicle: saline
  survivor count: 3 of 10

## Cc1c2c(ccc3ccccc32)c[n+]2ccccc12
T/C endpoint: median tumor weight (est.), dose: 6.25 mg/kg/injection, schedule: Q07DX005 (ip), vehicle: saline, evaluated on day 30
  T/C: 140 % of control [8 of 10 alive on day 30]
T/C endpoint: median tumor weight (est.), dose: 12.5 mg/kg/injection, schedule: Q07DX005 (ip), vehicle: saline, evaluated on day 30
  T/C: 130 % of control [9 of 10 alive on day 30]
T/C endpoint: median tumor weight (est.), dose: 25.0 mg/kg/injection, schedule: Q07DX005 (ip), vehicle: saline
  survivor count: 0 of 10 on day 30 and 5 of 10 on day 30
T/C endpoint: median tumor weight (est.), dose: 50.0 mg/kg/injection, schedule: Q07DX005 (ip), vehicle: saline
  survivor count: 0 of 10 on day 30
T/C endpoint: median tumor weight (est.), dose: 100.0 mg/kg/injection, schedule: Q07DX005 (ip), vehicle: saline
  survivor count: 0 of 10 on day 30
